Test results taken from US20240336673A1 (WEST VIRGINIA UNIVERSITY BOARD OF GOVERNERS ON BEHALF OF …, published 2024).
No constants are given. Whether binding was seen depends on the method and setting. Binding calls can cover weak binding; strength is not graded here.

Experiments:
Assay in all cases: ELISA on whole bacteria
[1] = target: Enterobacter clocae flagellin (Enterobacter cloacae)
[2] = target: Salmonella enterica flagellin (Salmonella enterica)
[3] = target: B. pertussis flagellin (Bordetella pertussis)
[4] = target: Escherichia coli flagellin (Escherichia coli)
[5] = target: Acinetobacter baumannii flagellin (Acinetobacter baumannii)
[6] = target: S. marcescens flagellin (Serratia marcescens)

Measured: binding

B1: WVDC-2109 (antibody, V domains shown)
VH: EVQLQESGAELVKPGASVKLSCKASGYTFTSYWMHWVKQRPGQGLEWIGMIRPNSGSTNYNEKFKSKATLTVDKSSSTAYMQLSSPTSEDSAVYYCARRGYGSSYGYYAMDYWGQGTSVTVSS
VL: DIVVTQTTSSLSASLGDRVTISCRASQDISNYLNWYQQKPDGTVKLLINYTSRLNSGVPSRFSGSGSGTDYSLTISNLEQEDIATYFCQQGNTLPWTFGGGTKLE
notes: also called anti-FliC mAb; mAb WVDC-2109
binds: all assays above
